Assay [1] concerns the target T1, COX-2 (Homo sapiens, UniProt P35354). The assay is described as follows: Assay for COX-1 and COX-2 Activity (PGE2 ELISA): COX-2. Conditions: read-out: hCox-2 IC50; human COX-2; standard assay. (In general: ELISA stands for enzyme-linked immunosorbent assay.)
For assay [2], the target named is T1, COX-2. Put plainly: Modified Assay for COX-1 and COX-2 Activity (PGE2 ELISA): COX-2. The settings on record: read-out: hCox-2 Modified IC50, human COX-2.

The chains behind the UniProt entries cited, without tags or fusion partners. Residues count along the entry.
UniProt P35354, 18-604 limits assumed: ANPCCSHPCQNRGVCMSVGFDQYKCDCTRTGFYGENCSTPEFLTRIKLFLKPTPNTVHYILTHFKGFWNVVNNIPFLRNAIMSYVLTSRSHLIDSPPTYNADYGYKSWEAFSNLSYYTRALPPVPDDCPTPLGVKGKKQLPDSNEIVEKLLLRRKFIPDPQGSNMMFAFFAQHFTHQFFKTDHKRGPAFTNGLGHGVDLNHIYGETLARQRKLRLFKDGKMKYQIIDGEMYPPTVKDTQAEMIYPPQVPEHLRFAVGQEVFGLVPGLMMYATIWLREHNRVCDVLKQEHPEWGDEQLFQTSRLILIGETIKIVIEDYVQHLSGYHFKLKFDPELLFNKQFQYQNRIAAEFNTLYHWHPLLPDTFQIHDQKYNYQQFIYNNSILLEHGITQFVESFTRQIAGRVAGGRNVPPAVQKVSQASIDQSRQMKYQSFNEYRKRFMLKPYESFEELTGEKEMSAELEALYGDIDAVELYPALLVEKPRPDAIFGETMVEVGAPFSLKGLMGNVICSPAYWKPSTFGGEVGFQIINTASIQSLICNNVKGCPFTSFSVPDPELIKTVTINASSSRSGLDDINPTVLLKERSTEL

The values that follow come from US20050148627A1 (priority 2003, published 2005).

For part of its entries the source gives two or more results. This list holds those alone. The source may hold further records. The values listed for one entry differ for a reason that is not stated; they may come from other doses, times, organisms or constructs than stated.

For the molecule `COc1ccc(-c2ccc3c(c2)C=C(C(=O)O)C(C(F)(F)F)O3)cc1OC` (centres unmarked), the IC50 (as a rule, the midpoint of a concentration-inhibition curve) on COX-2 [1] is 5.45 µM and > 11.1 µM.
For `O=C(O)C1=Cc2cc(-c3ccsc3)ccc2OC1C(F)(F)F` (centres unmarked), the IC50 at COX-2 [2] is 22.3 µM and > 100 µM.
For `Cc1csc(-c2ccc3c(c2)C=C(C(=O)O)C(C(F)(F)F)O3)c1` (centres unmarked), the IC50 on COX-2 [1] was 6.49 µM and 14.3 µM.
Take `O=C(O)C1=Cc2cc(-c3ccc4ccccc4c3)ccc2OC1C(F)(F)F` (centres unmarked): at COX-2 [2], the IC50 is 411 nM and 180 nM.
The same measure, in the same setting: the same measure for `O=C(O)C1=Cc2cc(-c3cccc4cccnc34)ccc2OC1C(F)(F)F` (centres unmarked): 4.9 µM and 1.5 µM.
